{
  "source": "PubChem BioAssay AID540256",
  "about": "(National Center for Advancing Translational Sciences (NCATS), 2011)",
  "note": "Values joined by “and” are separate entries in the source; they are usually repeats but may differ in a detail not shown here. Equal values may be shown once. The campaign covered roughly 300,000 compounds. About 3,700 (1.2%) were called active. The shares of active, inactive and inconclusive entries below differ from those in the screen. Calls come from the whole dose curve; tested in HEK293 cells. A potency beside an inconclusive call is a rough fit, not a confirmed value. Potency is the fitted concentration of half-maximal effect.",
  "data": [
    {"assay": "qHTS for Inhibitors of binding or entry into cells for Lassa Virus; note: nearly all actives have a fitted effect of over 50% in size", "conditions": "Lassa virus pseudotype entry inhibition, cell reporter; series mostly up to 37.9 µM", "values": [
      {"smiles": "O=C(COc1ccc(Cl)cc1)N1CCCC1", "Potency": "inactive"},
      {"smiles": "CC(C)(C)c1cc[n+](C2=C([O-])c3ccccc3C(=O)/C2=N\\S(=O)(=O)c2cccs2)cc1", "Potency": "inconclusive: 25.1 µM [inhibitor, single point]"},
      {"smiles": "CCOc1ccccc1NC(=O)C1=C(C)Nc2ncnn2C1c1ccco1", "note": "(centres undefined)", "Potency": "inactive"},
      {"smiles": "Cc1ccc(C(=O)N(Cc2ccco2)c2ccccn2)cc1", "Potency": "inconclusive: 3.98 µM [activator, full curve]"},
      {"smiles": "O=C(Nc1c(Cl)cccc1Cl)C1CCN(C(=O)c2cccs2)CC1", "Potency": "inconclusive: 0.708 µM [inhibitor, partial curve, poor fit]"},
      {"smiles": "C/C(CC(=O)Nc1ccc(N(C)C)cc1)=N\\NC(=O)c1ccncc1", "Potency": "inactive"},
      {"smiles": "Nc1c(C(=O)OCC2CCCO2)c2nc3ccccc3nc2n1C1CCCC1", "note": "(centres undefined)", "Potency": "inactive"},
      {"smiles": "CC(C)c1cccc(OCCN2CCCC2)c1", "Potency": "inactive"},
      {"smiles": "Cc1ccc(CNC(=O)c2c(Nc3ccccc3C)sc(C(=O)c3ccc(F)cc3)c2N)cc1", "Potency": "inconclusive: 35.5 µM [inhibitor, single point]"},
      {"smiles": "COc1cccc(-c2nn(C)c3sc(C(=O)NCc4ccc(OC)cc4OC)cc23)c1", "Potency": "inconclusive: 12.6 µM [inhibitor, single point]"},
      {"smiles": "O=C(Nc1ccc2snnc2c1)Nc1cccc2ccccc12", "Potency": "inconclusive: 15.8 µM [inhibitor, partial curve]"},
      {"smiles": "CC1(C)CC(=O)c2c(n(S(=O)(=O)c3ccccc3)c3ccc(NS(=O)(=O)c4ccccc4)cc23)C1", "Potency": "inconclusive: 11.2 µM [inhibitor, single point]"},
      {"smiles": "Cc1ccc(S(=O)(=O)N2CCCCC2)cc1NC(=O)c1ccc2c(c1)OCO2", "Potency": "inactive"},
      {"smiles": "O=C(N/N=C/c1ccc(F)cc1)c1cc[n+]([O-])cc1", "Potency": "inactive"},
      {"smiles": "O=C(CN1C(=O)c2ccccc2S1(=O)=O)c1ccccc1", "Potency": "active: 3.98 µM"},
      {"smiles": "COc1ccccc1Nc1c2c(nc3ccc(NC(=O)c4ccc(N(C)C)cc4)cc13)CCCC2", "Potency": "inconclusive: 17.8 µM [inhibitor, partial curve, poor fit]"},
      {"smiles": "CC(C)C1Cc2ccccc2-c2[nH]c(=S)[nH]c(=O)c21", "note": "(centres undefined)", "Potency": "inactive"},
      {"smiles": "CNC(=O)CSc1nc2ccccc2c(=O)n1CCc1ccccc1", "Potency": "inconclusive: 0.794 µM [inhibitor, single point]"},
      {"smiles": "Cc1ccc(-n2c(=O)c3oc4ccccc4c3n(Cc3cccc(F)c3)c2=O)cc1C", "Potency": "inconclusive: 12.6 µM [inhibitor, single point]"},
      {"smiles": "CC(C)[C@H](NC(=O)OC(C)(C)C)c1nnc(SCC(=O)Nc2ccc(Br)cc2)o1", "Potency": "inconclusive: 2.91 µM [inhibitor, full curve]"},
      {"smiles": "CN(C)S(=O)(=O)Nc1cccc(NC(=O)CC23CC4CC(CC(C4)C2)C3)c1", "Potency": "inconclusive: 35.5 µM [inhibitor, single point]"},
      {"smiles": "CCC1=NN(C(=O)Cc2ccc([N+](=O)[O-])cc2)C(O)(c2ccncc2)C1", "note": "(centres undefined)", "Potency": "inactive"},
      {"smiles": "COc1cc(Nc2nc(-c3ccc(OC)c(OC)c3)nc3ccccc23)cc(OC)c1", "Potency": "inconclusive: 10 µM [inhibitor, partial curve, poor fit]"},
      {"smiles": "Cc1c(C(=O)OCCOC(C)C)[nH]c2c1C(=O)CC(c1ccco1)C2", "note": "(centres undefined)", "Potency": "inconclusive: 0.517 µM [inhibitor, full curve, poor fit]"},
      {"smiles": "Cc1cccn2cc(-c3ccc4c(c3)NC(=O)CO4)nc12", "Potency": "inconclusive: 17.8 µM [inhibitor, partial curve, poor fit]"},
      {"smiles": "COc1cccc(-c2nc(-c3ccc(NC(=O)c4ccncc4)cc3)no2)c1", "Potency": "inactive"},
      {"smiles": "Cc1sc2ncnc(N3CCC(C(=O)N(C)CC(=O)Nc4ccccc4Cl)CC3)c2c1C", "Potency": "active: 10 µM"},
      {"smiles": "Cc1cccn2c(=O)c(C(=O)N3CCN(c4ccccc4)CC3)cnc12", "Potency": "inactive"},
      {"smiles": "CCOc1ccc(C(=O)NCc2ccco2)cc1Cl", "Potency": "inconclusive: 11.2 µM [inhibitor, partial curve, poor fit]"},
      {"smiles": "Cc1ccsc1C(=O)NNC(=O)CCN1CCN(c2ccccc2)CC1", "Potency": "inconclusive: 0.794 µM [inhibitor, partial curve, poor fit]"},
      {"smiles": "CC(=O)n1cc(N(C(=O)CCl)c2ccc(C)cc2)c2ccccc21", "Potency": "inconclusive: 12.6 µM [inhibitor, partial curve, poor fit]"},
      {"smiles": "C=CCN(C(=O)CSC1=NC(=O)CN1C(C)=O)c1nc(C)c(-c2ccccc2)s1", "Potency": "inactive"},
      {"smiles": "O=C(Nc1nc2cc3c(cc2s1)OCCO3)C1CCCCC1", "Potency": "active: 10 µM"},
      {"smiles": "CC(=NNC(=S)N1CC2CCC(CC2)C1)c1cnccn1", "Potency": "active: 0.282 µM"},
      {"smiles": "COc1cc(OC)c(C(=O)OCC(=O)NCCC2=CCCCC2)cc1OC", "Potency": "inconclusive: 7.08 µM [inhibitor, single point]"},
      {"smiles": "O=C(Oc1ccc2cc(Br)ccc2c1)N1CCCCCC1", "Potency": "inactive"},
      {"smiles": "N/C(=N\\OC(=O)N1c2ccccc2Sc2ccccc21)c1ccc(Br)cc1", "Potency": "inconclusive: 35.5 µM [inhibitor, single point]"},
      {"smiles": "COc1cccc(/C=C/C(=O)Oc2ccc(C(=O)c3ccc(F)cc3)cc2)c1", "Potency": "inactive"},
      {"smiles": "Cc1ccc(OCc2nnc(SCC(=O)Nc3cccc4ccccc34)n2-c2ccccc2)cc1", "Potency": "inconclusive: 5.01 µM [inhibitor, partial curve, poor fit]"},
      {"smiles": "CN(CC(=O)NCCc1ccccc1)S(=O)(=O)c1ccc(Br)s1", "Potency": "inactive"},
      {"smiles": "CCCCCCC1CC(/C(C)=N\\NC(N)=O)OC1=O", "note": "(centres undefined)", "Potency": "inactive"},
      {"smiles": "Cc1ccc(S(=O)(=O)N(CC(=O)N2CCOCC2)c2ccc(C(C)C)cc2)cc1", "Potency": "inconclusive: 5.62 µM [inhibitor, partial curve]"},
      {"smiles": "Cc1nc([N+](=O)[O-])c(C(=O)OCc2ccccc2Br)n1C", "Potency": "inconclusive: 22.4 µM [inhibitor, single point]"},
      {"smiles": "COc1ccc(N=C2NC(=O)C(CC(=O)NCCc3ccc(OC)c(OC)c3)S2)cc1", "note": "(centres undefined)", "Potency": "inconclusive: 20.6 µM [inhibitor, partial curve]"},
      {"smiles": "Cn1c(SCC(=O)N2CCOCC2)nnc1-c1ccc(Cl)cc1Cl", "Potency": "inactive"},
      {"smiles": "Cc1ccc(N(CC2=NCCN2)c2cccc(O)c2)cc1", "Potency": "inconclusive: 20.6 µM [inhibitor, single point] and inconclusive: 29.1 µM [inhibitor, single point]"},
      {"smiles": "Cn1ncc(Cl)c1C(=O)Nc1nc2ccc(Cl)cc2s1", "Potency": "inconclusive: 10 µM [inhibitor, partial curve]"},
      {"smiles": "CCCSc1nnc(NC(=O)Nc2ccc(F)cc2)s1", "Potency": "inconclusive: 22.4 µM [inhibitor, single point]"},
      {"smiles": "O=C(CN1C2CCCC1CC(NC(=O)c1ccco1)C2)Nc1ccccc1C(F)(F)F", "note": "(centres undefined)", "Potency": "inconclusive: 25.9 µM [inhibitor, single point]"},
      {"smiles": "Cc1[nH]c2ccccc2c1C(=O)CSc1nc2cc(S(=O)(=O)N3CCCCC3)ccc2o1", "Potency": "inconclusive: 20.6 µM [inhibitor, single point]"},
      {"smiles": "Fc1ccc(N2CCN(c3ncnc4onc(-c5ccc(Cl)cc5)c34)CC2)cc1", "Potency": "inconclusive: 11.2 µM [inhibitor, single point]"},
      {"smiles": "Cc1cc(NC(=O)CSc2nc3ccsc3c(=O)n2Cc2ccccn2)n[nH]1", "Potency": "inactive"},
      {"smiles": "CC(C)[C@H](NC(=O)c1ccccc1)C(=O)OCC(=O)NCc1ccc(F)cc1", "Potency": "inconclusive: 1 µM [inhibitor, single point]"},
      {"smiles": "COc1cccc(C2C(C(N)=O)=C(C)Nc3ncnn32)c1", "note": "(centres undefined)", "Potency": "inactive"},
      {"smiles": "O=C(COC(=O)CC1CC2CCC1C2)NCc1ccc(F)cc1", "note": "(centres undefined)", "Potency": "inconclusive: 3.98 µM [inhibitor, partial curve, poor fit]"},
      {"smiles": "CCOc1ccc(NC(=O)COn2nnc3ccc(S(=O)(=O)N4CCOCC4)cc32)cc1", "Potency": "inconclusive: 35.5 µM [inhibitor, single point]"},
      {"smiles": "O=C(Cn1cc(C(F)(F)F)cc(Cl)c1=O)NCc1ccc(Cl)cc1", "Potency": "inactive"},
      {"smiles": "CCCC(=O)Nc1ccc2oc(-c3ccc(O)c(Br)c3)nc2c1", "Potency": "inconclusive: 0.282 µM [activator, full curve, poor fit]"},
      {"smiles": "O=C(CSc1nc2nc(-c3cccs3)cc(C(F)(F)F)c2c(=O)[nH]1)Nc1c(F)c(F)c(F)c(F)c1F", "Potency": "inconclusive: 22.4 µM [inhibitor, partial curve, poor fit]"},
      {"smiles": "COc1cccc(CSc2nnnn2-c2ccc(O)cc2)c1", "Potency": "inconclusive: 5.62 µM [inhibitor, full curve, poor fit]"},
      {"smiles": "Cc1nc(N2CCOCC2)c2cc(-c3ccccc3)sc2n1", "Potency": "inconclusive: 2.24 µM [activator, full curve, poor fit]"},
      {"smiles": "CC(=O)Nc1ccc(OC/C=C(\\C)Cl)cc1", "Potency": "inactive"},
      {"smiles": "CN(C)c1nc(OCCNC(=O)COc2ccc(Cl)cc2Cl)nc(N2CCCCC2)n1", "Potency": "inconclusive: 20.6 µM [inhibitor, single point]"},
      {"smiles": "Cc1cc2oc(C(=O)Nc3ccc(S(=O)(=O)N(C)c4ccccc4)cc3)cc(=O)c2cc1C", "Potency": "inconclusive: 5.62 µM [inhibitor, single point]"},
      {"smiles": "Cc1cc(C(=O)CSc2nc3ccccc3o2)c(C)n1CC1CCCO1", "note": "(centres undefined)", "Potency": "inconclusive: 12.6 µM [inhibitor, single point]"},
      {"smiles": "COc1cc(/C=N/NC(=S)NCc2ccccc2)ccc1OCC#N", "Potency": "inconclusive: 11.2 µM [inhibitor, partial curve, poor fit]"},
      {"smiles": "COc1ccc(-c2ccnc(-c3ccncc3)n2)cc1", "Potency": "inconclusive: 3.16 µM [inhibitor, full curve, poor fit]"},
      {"smiles": "CC(C)(C)c1ccc(C(=O)Nc2nnc3n2CCS3)cc1", "Potency": "inconclusive: 6.31 µM [activator, partial curve, poor fit]"},
      {"smiles": "Clc1ccc(CNc2ncnc3[nH]ncc23)c(Cl)c1", "Potency": "inactive"}
    ]}
  ]
}
